Measured values published in PMC5996148.
The other results are listed elsewhere or left out. For some assays here: The exact form of the protein is not confirmed.

Columns and labels:
Test in all cases: protein microarray (ProtoArray v5.0), streptavidin-Alexa Fluor 647
Conditions in all cases: 3'-biotin; 20 mM Tris (pH 7.5), 5 mM MgCl2, 100 mM KCl, 0.1% Tween-20, A/T-rich and random oligonucleotide blockers; temperature not stated; high values mean tight binding
LYPLAL1 (human) = test system: LYPLAL1 (human)
LYSMD2 (human) = test system: LYSMD2 (human)
LYZL6 (human) = test system: LYZL6 (human)
LZIC (human) = test system: LZIC (human)
[1] = test system: Lactation elevated protein 1 (human)
[2] = test system: Lactoylglutathione lyase (human)
Leiomodin-1 (human) = test system: Leiomodin-1 (human)
[3] = test system: Leptin receptor gene-related protein (human)
[4] = test system: Leucine carboxyl methyltransferase 1 (human)
[5] = test system: Leukemia-associated protein 1 (human)
[6] = test system: Linker for activation of T-cells family member 1 (human)
[7] = test system: LisH domain-containing protein ARMC9 (human)
[8] = test system: Ly6/PLAUR domain-containing protein 5 (human)
M6PRBP1 (human) = test system: M6PRBP1 (human)
MAGEA4 (human) = test system: MAGEA4 (human)
MAGEH1 = target: T1, MAGEH1 (UniProt Q9H213)
T1 sequence: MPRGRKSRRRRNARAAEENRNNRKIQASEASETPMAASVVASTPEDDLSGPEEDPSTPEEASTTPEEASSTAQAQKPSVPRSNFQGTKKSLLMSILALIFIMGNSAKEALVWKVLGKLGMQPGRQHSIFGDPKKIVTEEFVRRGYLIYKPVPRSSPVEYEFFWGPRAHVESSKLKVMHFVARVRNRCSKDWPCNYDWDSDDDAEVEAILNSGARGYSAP

MAN2C1 (human) = test system: MAN2C1 (human)
MANSC1 (human) = test system: MANSC1 (human)
[9] = test system: MAP3K12-binding inhibitory protein 1 (human)
MAP4 (human) = test system: MAP4 (human)

GGGGACAGGGGTATGGGGAGGGG [G4-3 biotinylated (CtG)]
binding signal (LYPLAL1 (human)): -0.328 z-score | binding signal (LYSMD2 (human)): -0.337 z-score | binding signal (LYZL6 (human)): -0.336 z-score | binding signal (LZIC (human)): -0.338 z-score | binding signal [1]: -0.323 z-score | binding signal [2]: -0.301 z-score | binding signal (Leiomodin-1 (human)): 3.3 z-score | binding signal [3]: -0.328 z-score | binding signal [4]: -0.327 z-score | binding signal [5]: -0.306 z-score | binding signal [6]: -0.336 z-score | binding signal [7]: -0.341 z-score | binding signal [8]: -0.33 z-score | binding signal (M6PRBP1 (human)): -0.344 z-score | binding signal (MAGEA4 (human)): -0.33 z-score | binding signal (MAGEH1): 4.47 z-score | binding signal (MAN2C1 (human)): -0.323 z-score | binding signal (MANSC1 (human)): -0.33 z-score | binding signal [9]: -0.281 z-score | binding signal (MAP4 (human)): -0.316 z-score
